For the assay, the system named is RAW 264.7. As to the kind of experiment: cell viability (MTT) relative to vehicle control; higher = more viable cells. As to conditions: stimulus: HMGB1 5 ug/ml, 18 h.
[1] abbreviates: compound concentration: 1 ug/ml.

Several values for one entry are separate records, joined by “and”; a condition that tells them apart may be missing. Identical values can stand only once. Counter-ions that a name gives are not always drawn. ± gives the standard deviation of the averaged measurements. The list shows a part of the results. Many values rest on one well or one pass, so single values are uncertain.

The term cell viability denotes a read-out of living cells in per cent, often relative to untreated cells. As to `O=c1cc[nH]c(=S)[nH]1` [2-Thiouracile], under setting [1], the cell viability was 99.6%.

As for `O=c1cc[nH]c(=S)[nH]1`, the cell viability (compound concentration: 3 uM) came out at 108%.

As for `C[C@H](O)C(=O)Nc1c(I)c(C(=O)NC(CO)CO)c(I)c(C(=O)NC(CO)CO)c1I` [Iopamidol], under “compound concentration: 3 uM”, the cell viability was 77.9%.

With `COc1ccc2c(c1)C(=O)CC(c1cccc(OC)c1OC)O2` (stereo unspecified) [2',3',6-Trimethoxyflavanone], the cell viability under setting [1] turned out to be 98.5%.

As for `N[C@H](C(=O)O)c1cc(O)cc(O)c1` [(S)-3,5-Dihydroxyphenylglycine], for the setting “compound concentration: 3 uM”, the cell viability worked out at 110%.

In the case of `Cc1cccc(C#Cc2ccccc2)n1` [6-Methyl-2-(phenylethynyl)pyridine hydrochloride], the cell viability (compound concentration: 3 uM) was determined as 112%.

`c1ccc(C(NCc2cccnc2)(c2ccccc2)c2ccccc2)cc1`: the cell viability (compound concentration: 3 uM) turned out to be 89.3%.

For `C=CCN1CCc2c(cc(O)c(O)c2Br)[C@@H](c2ccccc2)C1` [R(+)-6-Bromo-APB hydrobromide], where the note is “compound concentration: 3 uM”, the cell viability was 83.1%.

Turning to `COc1ccc(C(=O)Nc2ccn([C@H]3C[C@H](O)[C@@H](CO)O3)c(=O)n2)cc1` [N4-Anisoyl-2'-deoxycytidine], under setting [1], the cell viability turned out to be 106%.

In the case of `C[C@@H]1C[C@H]2[C@@H]3C[C@H](F)C4=CC(=O)C(Cl)=C[C@]4(C)[C@@]3(F)[C@@H](O)C[C@]2(C)[C@@]1(O)C(=O)CO`, the cell viability (compound concentration: 3 uM) was 106%.

As to `Cc1cn(C2OC(CO)C(O)C2O)c(=S)[nH]c1=O` (stereo unspecified) [5-Methyl-2-thiouridine], the cell viability under setting [1] was 98.6%.

In the case of `O=c1cc(-c2ccc(O)c(O)c2)oc2cc(O[C@@H]3O[C@H](CO)[C@@H](O)[C@H](O)[C@H]3O)cc(O)c12` [Luteolin-7-glucoside], the cell viability under setting [1] is 93.3%.

As to `COc1c(-c2ccc(O)c(O)c2)oc2cc(O)cc(O)c2c1=O` [Quercetin 3-methyl ether], under setting [1], the cell viability stood at 93.6%.

Consider `Nc1ccc(S(=O)(=O)Nc2ccnn2-c2ccccc2)cc1` [Sulfaphenazole], for which, where the note is “compound concentration: 3 uM”, the cell viability was 116 ± 16%.

As to `Nc1ccc(S(=O)(=O)Nc2ccnn2-c2ccccc2)cc1`, the cell viability (compound concentration: 3 uM) worked out at 109%.

As for `O=C(NCC(O)CO)c1c(I)c(C(=O)NCC(O)CO)c(I)c(N(CCO)C(=O)CO)c1I` (stereo unspecified) [Ioversol], the cell viability (compound concentration: 3 uM) was 111%.

Take `CO/N=C(\C(=O)N[C@@H]1C(=O)N2C(C(=O)O)=C(COC(N)=O)CS[C@H]12)c1ccco1`: the cell viability (compound concentration: 3 uM) turned out to be 105%.

Turning to `CO/N=C(\C(=O)N[C@@H]1C(=O)N2C(C(=O)O)=C(COC(N)=O)CS[C@H]12)c1ccco1` [Cefuroxime sodium salt], the cell viability (compound concentration: 3 uM) turned out to be 104%.

Consider `N[C@@H](CS(=O)(=O)O)C(=O)O` [L-Cysteic acid monohydrate], for which the cell viability under setting [1] is 102%.

Turning to `Nc1nc2[nH]c(=O)cnc2c(=O)[nH]1` [Isoxanthopterin], the cell viability (compound concentration: 3 uM) was found to be 95.2%.

Turning to `CC(C)(C)[C@]1(O)CCN2C[C@H]3c4ccccc4CCc4cccc(c43)[C@@H]2C1` (racemic) [(±)-Butaclamol hydrochloride], the cell viability (compound concentration: 3 uM) is 96.2%.

As for `CC(C)(C)[C@]1(O)CCN2C[C@H]3c4ccccc4CCc4cccc(c43)[C@@H]2C1` [Butaclamol (+)], under “compound concentration: 3 uM”, the cell viability turned out to be 119%.

Turning to `CC(C)(C)[C@]1(O)CCN2C[C@H]3c4ccccc4CCc4cccc(c43)[C@@H]2C1` [(+)-Butaclamol hydrochloride], the cell viability (compound concentration: 3 uM) came out at 97.1%.

On to `CC1Cc2ccccc2N1NC(=O)c1ccc(Cl)c(S(N)(=O)=O)c1` (stereo unspecified), for which, for the setting “compound concentration: 3 uM”, the cell viability was 101%.

Turning to `CC1Cc2ccccc2N1NC(=O)c1ccc(Cl)c(S(N)(=O)=O)c1` (stereo unspecified) [Indapamide], the cell viability (compound concentration: 3 uM) amounted to 101 ± 13%.

Take `CCC(=O)c1c(O)cc(O)cc1O`: for the setting “compound concentration: 3 uM”, the cell viability was 104%.

Consider `Nc1ncnc2c1nc(Sc1ccc(Cl)cc1)n2C1OC2COP(=O)(O)O[C@@H]2[C@@H]1O` (stereo partly specified) [8-(4-Chlorophenylthio)-cAMP sodium], for which the cell viability (compound concentration: 3 uM) came to 101%.

In the case of `COc1ccc2cc(C(C)C(=O)O)ccc2c1` (stereo unspecified), the cell viability (compound concentration: 3 uM) stood at 106%.

`CC(C)C[C@@H]1NC(=O)[C@H](CCCN)NC(=O)[C@H](C(C)C)NC(=O)[C@H](Cc2ccc(O)cc2)N[C@@H](CCC(=O)O)C(=O)N[C@@H](CC(N)=O)C(=O)[C@@H](Cc2ccccc2)NC(=O)[C@H](Cc2ccccc2)NC(=O)[C@@H]2CCCN2C(=O)[C@@H](Cc2ccccc2)NC1=O`: for the setting “compound concentration: 3 uM”, the cell viability amounted to 48.8%.

`O=c1cc(-c2ccc(O)cc2)oc2cccc(O)c12` [4',5-Dihydroxyflavone]: the cell viability under setting [1] turned out to be 88.6%.

`CC(=O)Nc1ncc([N+](=O)[O-])s1`: for the setting “compound concentration: 3 uM”, the cell viability was determined as 105%.

With `O=C(O)C1=CCCNC1` [Guvacine hydrochloride], the cell viability (compound concentration: 3 uM) came to 107%.

For the compound `Cc1cc(CC(=O)O)n(C)c1C(=O)c1ccc(Cl)cc1`, the cell viability (compound concentration: 3 uM) worked out at 114%.

With `Cc1cc(CC(=O)O)n(C)c1C(=O)c1ccc(Cl)cc1` [Zomepirac sodium salt], for the setting “compound concentration: 3 uM”, the cell viability came out at 111%.

For the compound `NCCNC(=O)c1ncsc1-c1cccc(F)c1` [Ro 41-1049 hydrochloride], the cell viability (compound concentration: 3 uM) was 135%.

Consider `CCCCCCCCCCCCCCCC(=O)O[C@@H]1[C@@H](O)[C@@H](O)[C@@H]([C@H](NC(=O)[C@@H]2C[C@@H](CCC)CN2C)[C@H](C)Cl)O[C@@H]1SC`, for which the cell viability (compound concentration: 3 uM) was determined as 104%.

For the compound `CCCCCCCCCCCCCCCC(=O)O[C@@H]1[C@@H](O)[C@@H](O)[C@@H]([C@H](NC(=O)[C@@H]2C[C@@H](CCC)CN2C)[C@H](C)Cl)O[C@@H]1SC` [Clindamycin palmitate], the cell viability (compound concentration: 3 uM) was 109%.

Consider `COC(=O)CC[C@@H](C)[C@H]1CC[C@H]2[C@@H]3[C@H](O)C[C@@H]4C[C@H](O)CC[C@]4(C)[C@H]3C[C@H](O)[C@]12C` [Methyl cholate], for which the cell viability under setting [1] is 97.2%.

Consider `CC[C@H]1OC(=O)[C@H](C)[C@@H](O[C@H]2C[C@@](C)(OC)[C@@H](O)[C@H](C)O2)[C@H](C)[C@@H](O[C@@H]2O[C@H](C)C[C@H](N(C)C)[C@H]2O)[C@](C)(O)C[C@@H](C)/C(=N\OCOCCOC)[C@H](C)[C@@H](O)[C@]1(C)O`, for which the cell viability (compound concentration: 3 uM) was determined as 102%.

Regarding `CC[C@H]1OC(=O)[C@H](C)[C@@H](O[C@H]2C[C@@](C)(OC)[C@@H](O)[C@H](C)O2)[C@H](C)[C@@H](O[C@@H]2O[C@H](C)C[C@H](N(C)C)[C@H]2O)[C@](C)(O)C[C@@H](C)/C(=N\OCOCCOC)[C@H](C)[C@@H](O)[C@]1(C)O` [Roxithromycin], the cell viability (compound concentration: 3 uM) amounted to 96.1 ± 17%.

For the compound `CN1CCc2cc3c(cc2C(=O)Cc2ccc4c(c2C1)OCO4)OCO3` [Protopine], the cell viability under setting [1] turned out to be 94.8%.

Consider `CCc1cccc(N(C)C(=N)Nc2cccc3ccccc23)c1`, for which the cell viability (compound concentration: 3 uM) came to 93.1%.

In the case of `Nc1nc2c(c(=O)[nH]1)N=C(CNc1ccc(C(=O)N[C@@H](CCC(=O)O)C(=O)O)cc1)CN2` [Dihydrofolic acid, 90%], the cell viability under setting [1] was 87.5%.

On to `Nc1nc(F)nc2c1ncn2[C@@H]1O[C@H](CO)[C@@H](O)[C@@H]1O` [Fludarabine], for which the cell viability (compound concentration: 3 uM) worked out at 108%.

Turning to `C=C1CC[C@H](O)C/C1=C/C=C1\CCC[C@]2(C)[C@@H]([C@H](C)CCCC(C)(C)O)CC[C@@H]12` [Calcifediol], the cell viability (compound concentration: 3 uM) was 111%.

On to `Nc1nc(=O)c2nc(CNc3ccc(C(=O)N[C@@H](CCC(=O)O)C(=O)O)cc3)cnc2[nH]1`, for which the cell viability (compound concentration: 3 uM) is 100%.

As for `Nc1nc(=O)c2nc(CNc3ccc(C(=O)N[C@@H](CCC(=O)O)C(=O)O)cc3)cnc2[nH]1` [Folic acid], the cell viability (compound concentration: 3 uM) is 114%.

Take `CC(=O)N[C@@H](CC(C)C)C(=O)O` [N-Acetyl-L-leucine]: the cell viability (compound concentration: 3 uM) came out at 101%.

As to `CC(=O)N[C@@H](CC(C)C)C(=O)O`, for the setting “compound concentration: 3 uM”, the cell viability is 111%.

Turning to `CC(C)C[C@H](NC(=O)[C@@H](Cc1c[nH]c2ccccc12)NC(=O)[C@H](Cc1ccc(O)cc1)NC(=O)[C@H](CO)NC(=O)[C@H](Cc1c[nH]c2ccccc12)NC(=O)[C@H](Cc1c[nH]cn1)NC(=O)[C@@H]1CCC(=O)N1)C(=O)N[C@@H](CCCNC(=N)N)C(=O)N1CCC[C@H]1C(=O)NCC(N)=O` [Triptorelin], the cell viability (compound concentration: 3 uM) turned out to be 113%.

Regarding `O=C([O-])[C@H]1/C(=C/CO)O[C@@H]2CC(=O)N21.[Li+]`, the cell viability (compound concentration: 3 uM) is 101%.

As for `Nc1nc(Cl)nc2c1ncn2[C@@H]1O[C@H](CO)[C@@H](O)[C@@H]1F` [Clofarabine], the cell viability (compound concentration: 3 uM) stood at 73.8%.

As for `Cc1ccc2oc(=O)c(-c3ccc(O)cc3)c(C)c2c1` [4,6-Dimethyl-3(4'-hydroxyphenyl)coumarin], the cell viability under setting [1] amounted to 102%.

Consider `CC(N)=O` [Acetamide], for which the cell viability (compound concentration: 3 uM) was found to be 106%.

For `Nc1nc(=S)c2ncn([C@@H]3O[C@H](CO)[C@@H](O)[C@H]3O)c2[nH]1` [Thioguanosine], the cell viability (compound concentration: 3 uM) is 78.6%.

As to `CC(N)(C(=O)O)c1ccc(C(=O)O)cc1` (racemic) [(±)-alpha-Methyl-4-carboxyphenylglycine], the cell viability (compound concentration: 3 uM) was found to be 109%.

Regarding `CC(C)NCC(O)COc1ccc(COCCOC(C)C)cc1` (stereo unspecified) [Bisoprolol fumarate], the cell viability (compound concentration: 3 uM) amounted to 110%.

On to `CC(C)NCC(O)COc1ccc(COCCOC(C)C)cc1` (stereo unspecified), for which the cell viability (compound concentration: 3 uM) came out at 106 ± 13%.

In the case of `CC(C)NCC(O)COc1ccc(COCCOC(C)C)cc1` (stereo unspecified) [Bisoprolol hemifumarate salt], the cell viability (compound concentration: 3 uM) was determined as 108%.

For the compound `CC(C)=CCCC(C)CCO` (stereo unspecified) [Citronellol], the cell viability under setting [1] amounted to 99.5%.

`O=C1CN2Cc3c(ccc(Cl)c3Cl)N=C2N1` [Anagrelide]: where the note is “compound concentration: 3 uM”, the cell viability came out at 102%.

With `O=C1CN2Cc3c(ccc(Cl)c3Cl)N=C2N1`, where the note is “compound concentration: 3 uM”, the cell viability was 90.3% and 110%.

Turning to `CO[C@H]1/C=C/O[C@@]2(C)Oc3c(C)c(O)c4c(c3C2=O)C2=NC3(CCN(CC(C)C)CC3)NC2=C(NC(=O)/C(C)=C\C=C\[C@H](C)[C@H](O)[C@@H](C)[C@@H](O)[C@@H](C)[C@H](OC(C)=O)[C@@H]1C)C4=O` [Rifabutin], where the note is “compound concentration: 3 uM”, the cell viability was 107%.

Turning to `CO[C@H]1/C=C/O[C@@]2(C)Oc3c(C)c(O)c4c(c3C2=O)C2=NC3(CCN(CC(C)C)CC3)NC2=C(NC(=O)/C(C)=C\C=C\[C@H](C)[C@H](O)[C@@H](C)[C@@H](O)[C@@H](C)[C@H](OC(C)=O)[C@@H]1C)C4=O`, where the note is “compound concentration: 3 uM”, the cell viability is 102%.

With `O=c1cc(-c2ccc(O)cc2)oc2cc(O)cc(O)c12` [Apigenin], the cell viability worked out at 84.5% under setting [1] and 103% (compound concentration: 3 uM).

As to `CC(=O)OCC(COC(C)=O)OC(C)=O`, where the note is “compound concentration: 3 uM”, the cell viability came to 112%.

Consider `O=C(Cn1ccnc1[N+](=O)[O-])NCCO` [Etanidazole], for which the cell viability (compound concentration: 3 uM) worked out at 108%.

`O=C(Cn1ccnc1[N+](=O)[O-])NCCO`: where the note is “compound concentration: 3 uM”, the cell viability came out at 97.5 ± 0.11%.

With `C[C@@H](N)[C@H]1CC[C@H](C(=O)Nc2ccncc2)CC1`, the cell viability (compound concentration: 3 uM) worked out at 113%.

In the case of `NC[C@H]1O[C@@H](n2cnc3c(N)ncnc32)[C@H](O)[C@@H]1O` [5'-Amino-5'-deoxyadenosine p-toluenesulfonate salt], where the note is “compound concentration: 3 uM”, the cell viability was 115%.

These data come from the supplement of paper PMC3682954.
